Values quoted from earlier work, collected in patent publication US9453014B2, “Cyclic amide derivatives as inhibitors of 11-β-hydroxysteroid dehydrogenase and uses thereof” (CONNEXIOS LIFE SCIENCES PVT. LTD., priority 2011, dated 2016).
At least one structure is not confirmed: it was looked up by name or label, or the drawing left a doubt.

Tested on: 11β-HSD-1
Conditions: Zuker diabetic rats, troglitazone treatment; cited from earlier work

With Cc1c(C)c2c(c(C)c1O)CCC(C)(COc1ccc(CC3SC(=O)NC3=O)cc1)O2 (stereo not shown) [troglitazone] as the compound, how does the “decline in expression of 11β-HSD-1 in the islets” value read?
Its value is 40%.
